Data taken from ChEMBL document CHEMBL3988442, “University of Dundee, Small-Polar-MMV Screening Library” (2021).

A: 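Whole-parasite assay of Trypanosoma brucei over 72 hours; the read-out is not stated. Tested at 30 µM. Direction is inferred from retests: higher values go with stronger inhibition. Values scatter widely below zero; nearly all retest evidence comes from the higher of the two concentrations used. Of about 64,000 compounds tested this way, about 940 (1.5%) reached 50% or more in at least one test.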
B: 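Cell assay of Leishmania donovani living inside macrophages; the read-out is not stated. Tested at 30 µM. The record gives no direction; compounds that gave an IC50 in retests scored well above the rest, so higher reads as stronger inhibition. Of about 69,000 compounds tested this way, about 1,000 (1.5%) reached 50% or more in at least one test.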
C: 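Assay of Toxoplasma gondii numbers, read through their beta-galactosidase reporter with a colour substrate. Tested at 10 µM. The record gives no direction; the compounds picked for IC50 retests had high values, so higher reads as fewer parasites. Of about 67,000 compounds tested this way, about 260 (0.38%) reached 50% or more in at least one test.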

Each number is a percent effect as filed. The controls that fix the scale are not given in the record; negative values are as filed. The compounds are a random part of those screened. Two or more numbers in one place are separate tests of the same structure; such repeats can differ widely. A dash means the value is not listed here; it may have been measured.

Compound,A,B,C
Cn1c(CN2CCOC(CNc3cccnn3)C2)nnc1C1CC1 (stereo not given),-,15.35,7.574
CCCn1nc(C)c(-c2cncn2CC2(N(C)C)CCC(C)CC2)c1C (stereo not given),-25.32,1.091,-11.51
Cc1n[nH]c(C)c1CC(=O)N1CCC2(CC1)CN(C)CCN2C,4.25,28.03,-4.933
Cc1nn(C)c(N2CCOCC2)c1CNCc1nccs1,-6.856,2.2,-23.01
O=C(C1CCCC1)N1CC2(CCN(C3COC3)C2)Cc2ccccc21 (stereo not given),-,-2.452,5.373
COCc1nc(N(C)CCSc2ccccc2)c2cnn(C)c2n1,-24.1,-61.24,10.01
[H][C@@]12CS(=O)(=O)C[C@]1([H])N(CC(=O)N(C)C)CCN2c1ncccn1,-23.96,24.47,-10.74
O=C1CN(Cc2nnc(-c3ccc(Br)o3)o2)CCN1,-15.15,17.69,5.118
CSc1[nH]c(=O)c(C(=O)N2CCCC2C2CCCC2)cc1C#N (stereo not given),-17.53,3.701,-6.07
O=C(Cn1cc(-c2ccccc2)ncc1=O)Nc1ccncc1,31.2,32.11,-4.596
Brc1ccccc1-c1nnc(CNCCn2cccn2)o1,-,-21.38,14.73
Cc1ccccc1C1CN(c2cnn(C)c(=O)c2Cl)CCO1 (stereo not given),-80.21,-15.34,-1.841
CN(C)CCn1ccnc1C1CCN(c2cc(N)nc(N)n2)CC1,1.166,24.09,6.787
Cc1cc(C(=O)NCC2CCC3(CC2)OCCO3)[nH]n1,-43.88,11.79,4.725
Cn1nc(C2CNCCO2)cc1CCOc1cccc(C(F)(F)F)c1 (stereo not given),25.68,-3.018,6.197
COCCOc1cccc(C(=O)N2CCCC(n3ccnc3C)C2)c1 (stereo not given),5.743,15.28,-0.4449
COc1ccc(OCC(=O)NC(C)c2ccccc2)c(C(=O)O)c1 (stereo not given),-45.02,17.51,0.5848
CSc1ccc(C(=O)C2CCCN(C(=O)CCn3cncn3)C2)cc1 (stereo not given),0.06424,-3.881,4.075
CCNC(=O)N1CCC(NC(=O)NCCc2cccc(C)c2)C1 (stereo not given),-28.11,-25.35,1.335
COc1cc(OC)c(C2CC(=O)Oc3cc(C)[nH]c(=O)c32)cc1OC (stereo not given),-17.52,12.54,-2.331
Cc1ccc(CNC(=O)CCN2CCOC(C(F)(F)F)C2)cc1 (stereo not given),2.8,21.47,9.202
CN1CCOC(CNCc2nc(-c3ccco3)no2)C1 (stereo not given),2.014,11.89,9.45
CC(C)(C)c1cc(CN2CCOC(CCc3ccccc3)C2)n[nH]1 (stereo not given),9.572,11.36,7.697
CC(C)(C)c1csc(CNC(=O)C2NCCc3[nH]cnc32)n1 (stereo not given),-,14.37,-34.25
Cc1ccsc1CNC(=O)N(C)Cc1cnn(C)c1,-,7.952,10.96
Cn1cnc2c1C(C(=O)N1CCOCC1)N(C(=O)c1ccccc1)CC2 (stereo not given),-20.41,28.12,-0.266
CC(C)Cn1cnc2ccc(NC(=O)CCCn3cccn3)cc2c1=O,-13.61,25.66,-9.738
CC(NS(C)(=O)=O)C(=O)N(C)Cc1cnn(-c2ccc(F)cc2)c1 (stereo not given),-52.88,-6.393,-27.03
CC1CCCCN1C(=O)Cn1cc(I)cn1 (stereo not given),-12.63,26.3,5.507
CC(C)(C)c1n[nH]c(C2CN(C(=O)c3cc(C4CC4)on3)CCO2)n1 (stereo not given),-4.826,8.233,-0.4525
CC(C)(C)c1nc(CN2CCCN(Cc3cccs3)CC2)no1,-,28.35,-12.11
Cc1c[nH]nc1C1CCCCN1C(=O)CCn1nccc1C (stereo not given),-26.54,-4.742 & -18.56,6.751
CCS(=O)(=O)N[C@H]1CN(Cc2noc(COC)n2)C[C@@H]1C1CC1,-2.554,-10.31,15.49
CCn1nnc2c1CCN(C(=O)c1ccc3c(c1)OCO3)C2COC (stereo not given),-57.45,-0.1743,2.152
O=C(Cc1ccc(F)c(Br)c1)N1CCN(CCO)CC1,14.13,39.27,1.689
COc1ccccc1[C@@H]1CN(Cc2c(C)noc2C)C[C@H]1C(=O)O,-4.9,33.84,-0.8654
CC(=O)N1CCOC2(CCCN(Cc3ccc(Cl)c(C(F)(F)F)c3)C2)C1 (stereo not given),44.77,9.787,13.35
COc1ccccc1CNC(=O)C(C)N1CC(n2cc(C)cn2)C1 (stereo not given),-9.183,25.52,-2.17
Cc1cc2nc(SCC(=O)N3CCCC3)n(C)c(=O)c2[nH]1,-58.87,12.6 & 8.912,1.345
CC(=O)c1cccc(OCCCC(=O)NCC2CCCN2C)c1 (stereo not given),6.631,39.6,-20.89
CN(C)C(C(=O)N1CC(Oc2ccccc2F)C1)c1ccc(F)cc1 (stereo not given),13.83,10.53,7.706
Cc1csc(NC(=O)c2cnc(C3CCCN3)cn2)n1.Cl (stereo not given),-21.05,7.514,12.54
CC(C)n1ccnc1C1CCCN(c2cc(C(=O)NC3CC3)ccn2)C1 (stereo not given),-51.25,1.096,4.799
CC(C)C1CN(c2ncc(F)cn2)CCC(=O)N1Cc1ccc(F)cc1 (stereo not given),24.07,20.96,2.908
CC(C)n1ccnc1CN1CCCN(C(=O)c2cc(Cl)c[nH]2)CC1,-6.291,14.36,-18.12
CC(C)(C)OC(=O)N1CCN(c2ccc(F)cc2)CC1C(=O)O (stereo not given),-,0.2428,-
CCOc1ncccc1CNS(=O)(=O)c1ccc2c(c1)CCC2,-36.41,25.88,6.304
CN(C(=O)Nc1cccc(C#N)c1)C1CCN(c2ccccn2)CC1,-11.38,15.33,6.242

Once more, the final 5:

Compound	A	B	C
CC(C)C1CN(c2ncc(F)cn2)CCC(=O)N1Cc1ccc(F)cc1 (stereo not given)	24.07	20.96	2.908
CC(C)n1ccnc1CN1CCCN(C(=O)c2cc(Cl)c[nH]2)CC1	-6.291	14.36	-18.12
CC(C)(C)OC(=O)N1CCN(c2ccc(F)cc2)CC1C(=O)O (stereo not given)	-	0.2428	-
CCOc1ncccc1CNS(=O)(=O)c1ccc2c(c1)CCC2	-36.41	25.88	6.304
CN(C(=O)Nc1cccc(C#N)c1)C1CCN(c2ccccn2)CC1	-11.38	15.33	6.242